Results are given in words; binding and its absence hold for the method and conditions named. Some binding calls cover weakened binding; strength is not graded here.
Experiments:
[1] = target: T1, MICA-B2 isoform expressed on transfected cells (human) (UniProt Q29983); assay: facs analysis and immunocytology on transfected COS cells
T1 sequence: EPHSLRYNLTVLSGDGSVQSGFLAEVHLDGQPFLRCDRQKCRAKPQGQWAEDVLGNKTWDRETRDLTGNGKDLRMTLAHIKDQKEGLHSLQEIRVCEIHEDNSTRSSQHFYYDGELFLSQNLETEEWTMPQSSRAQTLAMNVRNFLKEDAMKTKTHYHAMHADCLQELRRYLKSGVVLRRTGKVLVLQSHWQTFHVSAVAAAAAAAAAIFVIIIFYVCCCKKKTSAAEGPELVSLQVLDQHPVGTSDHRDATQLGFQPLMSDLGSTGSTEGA

By UniProt entry, the sequences of proteins in these tests, tags left out. Where a name states a change or a piece, a line headed by the entry shows the natural chain unless it says otherwise. Residues count along the entry.
UniProt Q29983: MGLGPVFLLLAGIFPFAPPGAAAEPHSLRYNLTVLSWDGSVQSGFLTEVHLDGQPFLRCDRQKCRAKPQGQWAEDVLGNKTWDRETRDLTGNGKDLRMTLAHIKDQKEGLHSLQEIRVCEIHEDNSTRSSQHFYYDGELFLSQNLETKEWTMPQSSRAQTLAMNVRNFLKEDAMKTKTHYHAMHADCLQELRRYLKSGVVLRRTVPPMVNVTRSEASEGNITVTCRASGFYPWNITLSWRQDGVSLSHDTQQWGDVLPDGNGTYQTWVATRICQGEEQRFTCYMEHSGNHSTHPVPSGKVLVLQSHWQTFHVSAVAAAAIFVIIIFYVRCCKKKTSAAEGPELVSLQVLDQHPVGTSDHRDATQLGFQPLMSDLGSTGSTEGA
UniProt P26718, residues 78-216: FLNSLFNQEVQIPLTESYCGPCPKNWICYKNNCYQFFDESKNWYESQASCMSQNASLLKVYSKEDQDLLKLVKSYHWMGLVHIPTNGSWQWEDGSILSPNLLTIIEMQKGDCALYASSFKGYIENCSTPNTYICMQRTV

[2] = target: T1, MICA-B2 isoform expressed on transfected cells (human); assay: summary of the experiments on transfectants
[3] = target: T1, MICA-B2 isoform expressed on transfected cells (human); assay: NKG2D-Fc on COS transfectants (discussion of Example 1)
[4] = target: T1, MICA-B2 isoform expressed on transfected cells (human); assay: NKG2D-Fc on COS transfectants, anti-IgG FITC, fluorescence and confocal microscopy

- binding [1]: binds
- binding [2]: binds
- binding [3]: binds
- binding [4]: binds
Substance: recombinant NKG2D-Fc chimeric protein (from UniProt P26718 78-216) (Fc fusion)
